{"sequences": {"note": "By UniProt entry, the sequences of proteins in these tests, tags left out. Where a name states a change or a piece, a line headed by the entry shows the natural chain unless it says otherwise.", "UniProt P07320, whole entry": "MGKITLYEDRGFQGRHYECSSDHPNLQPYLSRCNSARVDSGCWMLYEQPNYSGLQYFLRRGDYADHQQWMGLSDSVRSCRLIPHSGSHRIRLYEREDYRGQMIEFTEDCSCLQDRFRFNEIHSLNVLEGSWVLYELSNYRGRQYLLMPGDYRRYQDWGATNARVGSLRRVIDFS"}, "source": "paper doi:10.1101/2022.05.30.493970", "key": {"[1]": {"target": "GammaD-crystallin WT (UniProt P07320)", "assay": "SEC"}, "[2]": {"target": "GammaD-crystallin WT (UniProt P07320)", "assay": "SEC", "remark": "listed apart in the source"}}, "note": "Like-named read-outs stand apart in the source and are kept apart here. Results are given in words; binding and its absence hold for the method and conditions named."}
{"binder": "HSPB5 WT (full length) (protein, UniProt P02511 1-175) MDIAIHHPWIRRPFFPFHSPSRLFDQFFGEHLLESDLFPTSTSLSPFYLRPPSFLRAPSWFDTGLSEMRLEKDRFSVNLDVKHFSPEELKVKVLGDVIEVHGKHEERQDEHGFISREFHRKYRIPADVDPLTITSSLSSDGVLTVNGPRKQVSGPERTIPITREEKPAVTAAPKK", "values": [{"measurement": "binding", "setting": "[1]", "value": "no binding"}]}
{"binder": "HSPB5 R120G (protein, UniProt P02511 1-175) MDIAIHHPWIRRPFFPFHSPSRLFDQFFGEHLLESDLFPTSTSLSPFYLRPPSFLRAPSWFDTGLSEMRLEKDRFSVNLDVKHFSPEELKVKVLGDVIEVHGKHEERQDEHGFISREFHGKYRIPADVDPLTITSSLSSDGVLTVNGPRKQVSGPERTIPITREEKPAVTAAPKK", "values": [{"measurement": "binding", "setting": "[1]", "value": "no binding"}, {"measurement": "binding", "setting": "[2]", "value": "no binding"}]}
{"binder": "HSPB5 D109H (protein, UniProt P02511 1-175) MDIAIHHPWIRRPFFPFHSPSRLFDQFFGEHLLESDLFPTSTSLSPFYLRPPSFLRAPSWFDTGLSEMRLEKDRFSVNLDVKHFSPEELKVKVLGDVIEVHGKHEERQHEHGFISREFHRKYRIPADVDPLTITSSLSSDGVLTVNGPRKQVSGPERTIPITREEKPAVTAAPKK", "values": [{"measurement": "binding", "setting": "[1]", "value": "no binding"}, {"measurement": "binding", "setting": "[2]", "value": "no binding"}]}
